# Primary screen of a compound library

The chains behind the UniProt entries cited, without tags or fusion partners. Residues count along the entry.
UniProt P9WPC5, whole entry: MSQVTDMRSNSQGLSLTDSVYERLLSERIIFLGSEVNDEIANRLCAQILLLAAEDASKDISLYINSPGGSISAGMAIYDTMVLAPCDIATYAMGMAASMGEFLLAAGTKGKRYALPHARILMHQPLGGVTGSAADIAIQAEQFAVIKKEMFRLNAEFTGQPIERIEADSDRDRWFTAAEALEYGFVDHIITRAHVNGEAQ
UniProt P9WPC3, whole entry partner: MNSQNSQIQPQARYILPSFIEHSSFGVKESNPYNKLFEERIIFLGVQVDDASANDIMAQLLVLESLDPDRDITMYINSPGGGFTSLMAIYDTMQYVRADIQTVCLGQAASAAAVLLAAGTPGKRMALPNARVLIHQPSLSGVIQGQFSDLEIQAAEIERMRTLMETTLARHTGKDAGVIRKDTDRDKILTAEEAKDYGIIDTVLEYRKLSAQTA
UniProt Q4DA54, 1-478: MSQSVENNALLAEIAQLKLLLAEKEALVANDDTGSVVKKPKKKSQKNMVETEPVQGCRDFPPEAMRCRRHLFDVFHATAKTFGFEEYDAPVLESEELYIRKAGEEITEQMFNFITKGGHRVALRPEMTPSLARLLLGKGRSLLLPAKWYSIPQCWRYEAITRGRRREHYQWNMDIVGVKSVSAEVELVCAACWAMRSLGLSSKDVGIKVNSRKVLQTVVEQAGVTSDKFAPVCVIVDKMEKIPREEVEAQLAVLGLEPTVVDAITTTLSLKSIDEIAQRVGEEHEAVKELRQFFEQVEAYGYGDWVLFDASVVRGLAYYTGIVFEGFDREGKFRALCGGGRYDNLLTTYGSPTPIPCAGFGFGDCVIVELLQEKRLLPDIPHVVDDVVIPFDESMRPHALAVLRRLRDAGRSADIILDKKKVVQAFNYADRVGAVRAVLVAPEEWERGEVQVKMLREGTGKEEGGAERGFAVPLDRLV
UniProt Q8IDJ8, 1-583: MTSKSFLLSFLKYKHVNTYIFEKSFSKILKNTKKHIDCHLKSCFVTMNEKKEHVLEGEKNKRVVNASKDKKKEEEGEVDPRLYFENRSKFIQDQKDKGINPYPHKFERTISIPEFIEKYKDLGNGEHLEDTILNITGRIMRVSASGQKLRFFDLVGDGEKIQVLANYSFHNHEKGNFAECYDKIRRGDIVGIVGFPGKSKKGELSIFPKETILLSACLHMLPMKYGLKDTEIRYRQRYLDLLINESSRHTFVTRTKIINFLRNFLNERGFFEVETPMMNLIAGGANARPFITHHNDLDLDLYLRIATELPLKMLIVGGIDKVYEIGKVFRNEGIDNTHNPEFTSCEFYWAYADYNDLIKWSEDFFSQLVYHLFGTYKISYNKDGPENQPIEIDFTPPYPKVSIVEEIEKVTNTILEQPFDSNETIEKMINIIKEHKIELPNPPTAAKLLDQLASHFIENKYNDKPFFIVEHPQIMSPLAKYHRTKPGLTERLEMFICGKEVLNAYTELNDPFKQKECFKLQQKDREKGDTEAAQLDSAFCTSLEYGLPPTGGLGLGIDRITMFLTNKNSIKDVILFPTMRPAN
UniProt P9WNZ1, whole entry: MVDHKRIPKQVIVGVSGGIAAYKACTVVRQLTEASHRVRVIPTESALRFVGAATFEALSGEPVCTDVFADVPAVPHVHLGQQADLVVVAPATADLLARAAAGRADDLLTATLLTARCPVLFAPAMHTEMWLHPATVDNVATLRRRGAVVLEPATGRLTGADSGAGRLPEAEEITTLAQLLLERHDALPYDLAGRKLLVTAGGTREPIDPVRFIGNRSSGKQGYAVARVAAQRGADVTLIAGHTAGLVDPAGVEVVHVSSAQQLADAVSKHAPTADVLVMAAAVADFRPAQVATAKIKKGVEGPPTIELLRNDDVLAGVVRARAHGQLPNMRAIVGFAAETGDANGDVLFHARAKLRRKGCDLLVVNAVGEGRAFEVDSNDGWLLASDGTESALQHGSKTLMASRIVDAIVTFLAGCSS
UniProt I6X8D2, whole entry: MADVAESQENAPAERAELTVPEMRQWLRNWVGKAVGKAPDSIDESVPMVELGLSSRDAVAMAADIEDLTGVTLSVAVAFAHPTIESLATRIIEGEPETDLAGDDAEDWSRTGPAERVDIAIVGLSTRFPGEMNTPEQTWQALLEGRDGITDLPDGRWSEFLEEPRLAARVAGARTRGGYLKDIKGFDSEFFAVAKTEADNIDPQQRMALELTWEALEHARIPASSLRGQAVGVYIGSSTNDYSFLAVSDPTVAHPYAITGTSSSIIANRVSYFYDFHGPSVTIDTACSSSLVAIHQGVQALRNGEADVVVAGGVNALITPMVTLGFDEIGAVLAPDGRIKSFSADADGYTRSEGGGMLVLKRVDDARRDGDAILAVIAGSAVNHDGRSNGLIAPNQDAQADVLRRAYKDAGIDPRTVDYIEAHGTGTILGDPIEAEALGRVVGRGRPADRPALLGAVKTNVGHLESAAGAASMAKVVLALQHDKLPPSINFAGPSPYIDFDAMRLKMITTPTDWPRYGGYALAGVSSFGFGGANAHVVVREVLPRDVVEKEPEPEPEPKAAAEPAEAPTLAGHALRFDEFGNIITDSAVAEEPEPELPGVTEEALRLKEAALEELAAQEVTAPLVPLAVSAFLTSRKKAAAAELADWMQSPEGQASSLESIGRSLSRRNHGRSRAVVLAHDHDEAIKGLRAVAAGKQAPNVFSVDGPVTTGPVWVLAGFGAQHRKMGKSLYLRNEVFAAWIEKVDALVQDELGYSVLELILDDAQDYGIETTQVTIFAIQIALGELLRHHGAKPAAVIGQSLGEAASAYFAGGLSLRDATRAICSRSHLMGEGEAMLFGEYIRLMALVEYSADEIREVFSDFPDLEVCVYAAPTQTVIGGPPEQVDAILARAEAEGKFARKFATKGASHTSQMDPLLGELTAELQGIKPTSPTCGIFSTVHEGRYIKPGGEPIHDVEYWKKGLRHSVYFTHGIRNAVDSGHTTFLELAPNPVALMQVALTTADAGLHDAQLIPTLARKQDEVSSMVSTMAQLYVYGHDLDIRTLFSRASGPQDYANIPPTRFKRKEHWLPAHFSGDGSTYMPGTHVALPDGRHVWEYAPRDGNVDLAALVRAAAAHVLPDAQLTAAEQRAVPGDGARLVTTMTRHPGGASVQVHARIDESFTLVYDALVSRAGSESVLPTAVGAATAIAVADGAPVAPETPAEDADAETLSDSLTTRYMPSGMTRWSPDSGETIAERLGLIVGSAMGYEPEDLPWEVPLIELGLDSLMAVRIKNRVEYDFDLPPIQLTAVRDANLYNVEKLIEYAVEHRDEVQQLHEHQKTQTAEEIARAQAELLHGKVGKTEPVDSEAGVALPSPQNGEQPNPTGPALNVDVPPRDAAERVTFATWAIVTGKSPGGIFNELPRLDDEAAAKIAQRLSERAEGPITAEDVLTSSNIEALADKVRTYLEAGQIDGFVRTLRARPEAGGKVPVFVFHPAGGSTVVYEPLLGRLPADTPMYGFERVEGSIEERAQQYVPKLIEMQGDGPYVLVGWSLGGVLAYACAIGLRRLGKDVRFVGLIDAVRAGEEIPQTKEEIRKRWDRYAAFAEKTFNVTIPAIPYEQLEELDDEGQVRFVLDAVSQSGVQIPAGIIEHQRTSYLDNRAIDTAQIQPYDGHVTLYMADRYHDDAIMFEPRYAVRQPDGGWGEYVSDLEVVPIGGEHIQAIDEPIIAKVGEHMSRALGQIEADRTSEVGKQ

Values are the deposited “Percent Effect”, in %. How 0% and 100% were set is not recorded. Most values in the screen are low, and negative values occur. The compounds are a random part of those screened. Two or more numbers in one place are separate tests of the same structure; such repeats can differ widely. A dash means the value is not listed here; it may have been measured.

A: 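ClpP1P2, Mycobacterium tuberculosis (UniProt P9WPC5 and UniProt P9WPC3). Protease assay of ClpP1P2, read by the AMC dye that it sets free. Concentration: 50 µM. Direction is inferred from only a few compounds that gave an IC50; most scored high, so higher reads as stronger inhibition. Most other retested compounds had strongly negative values. Size under these conditions: about 69,000 compounds, about 10 of them at 50% or above in at least one test.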
B: 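Enzyme assay of histidyl-tRNA synthetase; the read-out is not stated. Target: Histidine-tRNA ligase, Trypanosoma cruzi CL Brener (UniProt Q4DA54). Concentration: 30 µM. Higher reads as stronger inhibition (inferred: compounds with an IC50 in retests scored well above the rest). Of about 69,000 compounds tested this way, about 31 (0.045%) reached 50% or more in at least one test.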
C: 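Lysine-tRNA ligase, Plasmodium falciparum 3D7 (UniProt Q8IDJ8). Enzyme assay of the cytosolic lysyl-tRNA synthetase in 384-well plates, read by luminescence. Compounds at 30 µM. Higher reads as stronger inhibition, judged from the few compounds that gave an IC50. Of about 69,000 compounds tested this way, about 49 (0.071%) reached 50% or more in at least one test.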
D: 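Enzyme assay of CoaBC with a phosphate dye (Biomol Green) read at 650 nm. Target: Coenzyme A biosynthesis protein CoaBC, Mycobacterium tuberculosis (UniProt P9WNZ1). Tested at 30 µM. Direction is inferred from only a few compounds that gave an IC50; most scored high, so higher reads as stronger inhibition. Most strong results did not repeat in a second test. About 67,000 compounds were tested under these conditions; 0.06% (about 40) showed 50% or more at least once.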
E: 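Cell assay of Leishmania donovani living inside macrophages; the read-out is not stated. Tested at 30 µM. Higher reads as stronger inhibition (inferred: compounds with an IC50 in retests scored well above the rest). About 69,000 compounds were tested under these conditions; 1.5% (about 1,000) showed 50% or more at least once.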
F: 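Polyketide synthase Pks13, Mycobacterium tuberculosis (UniProt I6X8D2). Enzyme assay of the thioesterase domain of polyketide synthase 13; the read-out is not stated. Concentration: 30 µM. Higher reads as stronger inhibition (inferred from which compounds were picked for retests). Size under these conditions: about 67,000 compounds, about 300 of them at 50% or above in at least one test.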

SMILES	A	B	C	D	E	F
O=C(O)C(F)(F)F.[H][C@@]12CCN(c3nncs3)C[C@]1([H])O[C@@H](C(=O)NCC1CCOCC1)C2	-	-	-	-	7.399%	-
CC(C)COCC(NC(=O)Cc1ccn[nH]1)c1ccco1 (centres unmarked)	1.983%	-0.8403%	3.051%	-10.48%	13.24%	-15.79%
CC(C)C[C@@H](C(N)=O)n1cc(-c2cncnc2)nn1	-13.95%	7.2%	7.691%	10.61%	18.8%	-3.768%
Cc1sc(Oc2ccccc2Cl)nc1C(=O)O	-12.73%	-0.565%	15.82%	-22.28%	9.511%	-4.813%
CCS(=O)(=O)NCCN1CCN(C(C#N)c2ccccc2)CC1 (centres unmarked)	-4.423%	3.96%	5.547%	1.823%	29.67%	-5.128%
Cc1ccccc1NC(=O)c1cncc(C2CCNCC2)n1.Cl	-	-	-	-	-31.7%	-
Cc1cc(C)n(CCNCc2cc(-c3ccc(F)cc3)c[nH]c2=O)n1	-49.12%	6.571%	-0.08781%	-5.023%	39.7%	0.7429%
CCc1n[nH]c(C2CN(C(=O)c3ccc(NC4CC4)nc3)CCO2)n1 (centres unmarked)	-34.15%	0.2915%	2.587%	3.916%	11.79%	-763.5%
Cc1ccc(-c2cc(CN3CCc4cncnc4C3)on2)cc1	1.967%	24.86%	6.341%	-1.786%	8.587%	-22.13%
CCN(CC)c1ccc(CNC(=O)c2ccc(=O)[nH]n2)cn1	3.67%	3.448%	10.14%	-0.5894%	-11.54%	5.243%
Cc1cc(C(=O)N2CCC3(CC2)COCCN(c2cccnc2)C3)[nH]n1.O=C(O)C(F)(F)F	-	-	-	-	16.35%	-
O=C1CSCN1CC(=O)N1CCCC1c1nc2ccccc2s1 (centres unmarked)	7.627%	8.929%	2.946%	-4.263%	27.89%	-20.38%
CCN1CC(C(=O)NCCn2cccc2)CC1=O (centres unmarked)	-12.82%	0.8772%	3.506%	-0.6165%	21.9%	0.1438%
Cc1cnn(CCCNC(=O)N2CCCCC(N3CCCC3)C2)c1 (centres unmarked)	19.6%	2.662%	0.667%	-1.596%	26.48%	-
CCOc1ncccc1C(=O)N1CCCC1Cn1cc(C)cn1 (centres unmarked)	9.336%	6.017%	2.135%	6.087%	-8.64%	7.726%
COCCN1CC2(CCCN(c3ncc(Cl)cc3F)C2)CCC1=O (centres unmarked)	1.637%	11.39%	0.04751%	7.212%	32.6%	-1.486%
Cc1nnc(N2CC[C@H](OCC3CC3)[C@@H](Cc3ccccc3)C2)s1.O=C(O)C(F)(F)F	-	-	-	-	51.69%	-
C[C@H]1C[C@H]2CN(C(=O)c3ccncn3)CC[C@@H]2O1	-2.331%	3.659%	4.129%	3.759%	-	6.988%
CC(C)n1cnnc1Cn1c(=O)ccc2ccccc21	2.456%	5.759%	-1.409%	4.321%	30.89%	-19.62%
CN(C)c1nc(N2CCCC2)nc2c1CCN(C(=O)c1ccoc1)CC2	12.62%	-1.149%	2.137%	7.582%	2.853%	-36.39%
N#Cc1ccc(S(=O)(=O)NC(=O)C2CC2)c(C(F)(F)F)c1	8.479%	3.008%	3.058%	3.915%	1.047%	-1.087%
[H][C@@]12CN(C(C)C)C[C@]1([H])OCC(=O)N2Cc1ccccc1	-	-	-	-	31.35%	-
Cc1noc(C(C)N2CCN(CCC(=O)N3CCCCC3)CC2)n1 (centres unmarked)	-4.659%	2.174%	5.467%	8.772%	22.99%	-27.11%
Cc1nc2c(C(=O)N[C@H]3C[C@H]4CN(C)CCN4C3)cccc2[nH]1	1.611%	-0.5405%	0.9277%	9.524% & 23.18%	-	-23.48%
O=C(NCc1cnc2n1CCN(Cc1nccs1)C2)c1ccno1.O=C(O)C(F)(F)F	-	-	-	-	6.083%	-
CC(C)c1noc(C(C)N2CCN(Cc3ccccc3C#N)CC2)n1 (centres unmarked)	-4.425%	1.515%	2.49%	2.838%	13.23%	18.96%
CNC(=O)CS(=O)(=O)C1CCN(S(=O)(=O)c2ccccc2Br)CC1	-13.23%	0.8264%	2.446%	4.478%	5.37%	-2.053%
CC(C)c1ncc2c(n1)CN(Cc1ccc(C(N)=O)cc1)CC2	-4.427%	2.662%	10.37%	0.266%	-11.78%	-1.99%
O=C(N[C@H]1COC[C@@H]1N1CCCC1)c1csc(-c2cccs2)n1	-5.958%	20.1%	1.598%	2.913%	26.29%	-0.3274%
O=C(CC1CCCC1)NCCn1ccc(-c2ccccn2)n1	-11.87%	5.435%	1.213%	2.408%	4.786%	-12.92%
CC(C)c1nc(S(=O)(=O)N2CCSc3ccccc32)c[nH]1	-0.5955%	5.759%	5.248%	1.499%	0.8712%	-65.43%
COCCNc1nc2c(c(NCC3CCOC3)n1)CCNCC2 (centres unmarked)	-0.7475%	11.36%	-1.472%	-32.33%	32.27%	89.58%
CC[C@@H]1N(Cc2nccs2)CCC[C@]12CCC(=O)N2CCOC.O=C(O)C(F)(F)F	-	-	-	-	-1.608%	-
CNc1cc(N2CCCC2CNCc2cccs2)ncn1 (centres unmarked)	-1.376%	4.933%	5.912%	3.046%	17.62%	-27.84%

The last 2 entries again:

{"smiles": "CC[C@@H]1N(Cc2nccs2)CCC[C@]12CCC(=O)N2CCOC.O=C(O)C(F)(F)F", "E": -1.608}
{"smiles": "CNc1cc(N2CCCC2CNCc2cccs2)ncn1", "stereo": "centres unmarked", "A": -1.376, "B": 4.933, "C": 5.912, "D": 3.046, "E": 17.62, "F": -27.84}

The values are deposited in ChEMBL (CHEMBL3988442, “University of Dundee, Small-Polar-MMV Screening Library” (2021)).